The supplement of paper PMC12823440, “Inhibitors supercharge kinase turnover through native proteolytic circuits” (Nature, 2025)
Some of the results follow. The calls rarely recur for the same compound in another form.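 Kinases were expressed as nanoluciferase fusions in K562 cells and luminescence was read every 4 h between 2 and 18 h as percent of control, DMSO set to 100% and a positive control to 0%. A time point counts as decreased when the signal drops significantly (2 sigma). The hit call is the authors' own, does not follow from the count of time points alone, and its rule is not shown.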

The chains behind the UniProt entries cited, without tags or fusion partners. Where a name states a change or a piece, a line headed by the entry shows the natural chain unless it says otherwise.
UniProt Q12851: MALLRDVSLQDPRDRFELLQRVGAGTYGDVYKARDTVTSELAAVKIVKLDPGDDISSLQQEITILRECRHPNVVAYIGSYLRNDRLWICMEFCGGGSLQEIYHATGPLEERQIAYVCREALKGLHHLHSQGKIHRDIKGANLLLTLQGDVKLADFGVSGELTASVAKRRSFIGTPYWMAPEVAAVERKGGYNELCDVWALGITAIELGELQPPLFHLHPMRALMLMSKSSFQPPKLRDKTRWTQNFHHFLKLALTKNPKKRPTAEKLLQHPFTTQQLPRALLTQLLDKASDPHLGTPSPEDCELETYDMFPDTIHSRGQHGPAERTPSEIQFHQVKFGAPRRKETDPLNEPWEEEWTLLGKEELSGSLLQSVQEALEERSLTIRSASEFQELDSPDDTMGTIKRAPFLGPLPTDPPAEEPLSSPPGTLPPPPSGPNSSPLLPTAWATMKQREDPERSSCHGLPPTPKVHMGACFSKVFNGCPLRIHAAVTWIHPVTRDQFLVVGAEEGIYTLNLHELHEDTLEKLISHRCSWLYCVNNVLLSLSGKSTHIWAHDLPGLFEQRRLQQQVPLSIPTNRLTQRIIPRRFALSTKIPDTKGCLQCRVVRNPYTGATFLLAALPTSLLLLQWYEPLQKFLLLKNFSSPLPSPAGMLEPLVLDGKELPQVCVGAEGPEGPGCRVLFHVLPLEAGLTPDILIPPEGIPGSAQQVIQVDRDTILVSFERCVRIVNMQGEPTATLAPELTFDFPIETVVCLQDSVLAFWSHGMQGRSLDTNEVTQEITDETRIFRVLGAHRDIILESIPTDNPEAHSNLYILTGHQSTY

What follows are compounds tested against MAP4K2 (UniProt Q12851) (assay: number of time points (of 5) at which kinase-Nluc abundance scored as decreased, DMSO-normalised (count); higher = more persistent destabilization). Conditions: K562; 2-18 h.

| SMILES | number of time points |
| --- | --- |
| CN1CCN(c2cc(-c3ccncc3)c(-c3ccc4ccccc4c3)nn2)CC1 (10 µM) | 0 |
| CC(O)(C#Cc1ccc2c(c1)N(c1nc(N)ncc1Cl)CC2)c1nccs1 (stereo unspecified) (2.5 µM) | 0 |
| COc1ccc(Nc2ncc(C(F)(F)F)c(NC3CC3)n2)cc1OC (10 µM) | 0 |
| O=c1cc(N2CCOCC2)oc2c(-c3ccc4c(c3)OCCO4)csc12 (2.5 µM) | 0 |
| N[C@@H]1CCCN(c2c(/C=C3\SC(=O)NC3=O)cccc2-c2ccccc2)C1 (10 µM) | 0 |
| N#Cc1ccc(-c2cnc3[nH]cc(NC(=O)c4cccnc4)c3c2)cc1 (10 µM) | 0 |
| COc1ccc(Br)cc1NC(=O)Nc1cccc2c1ccn2Cc1ccnc(N)c1 (2.5 µM) | 0 |
| COc1cc(N2CCOCC2)ccc1Nc1ncc(F)c(Nc2ccccc2NS(C)(=O)=O)n1 (10 µM) | 0 |
| COc1ccc(-c2cc(=O)c3c(OC)cc(OC)c(OC)c3o2)cc1 [6-Demethoxytangeretin] (10 µM) | 0 |
| COc1cc2c(cc1O)C[C@H]1c3cc(O)c(OC)cc3CC[N@@+]1(C)C2 [Phellodendrine] (10 µM) | 0 |
| CO[C@H]1C[C@@H]2CC[C@@H](C)[C@@](O)(O2)C(=O)C(=O)N2CCCC[C@H]2C(=O)O[C@H]([C@H](C)C[C@@H]2CC[C@@H](OC(=O)C(C)(CO)CO)[C@H](OC)C2)CC(=O)[C@H](C)/C=C(\C)[C@@H](O)[C@@H](OC)C(=O)[C@H](C)C[C@H](C)/C=C/C=C/C=C/1C [Temsirolimus] (2.5 µM) | 0 |
